In paper PMC12040169 (PLOS Biology, 2025):
This is one part of the list.

system: T1, CTL2-GFP (C. trachomatis L2/434/Bu, GFP-expressing); design: species or system HeLa; Intracellular C. trachomatis growth in HeLa cells, bulk GFP fluorescence relative to DMSO; settings: bulk GFP, single well; 28.5 h, 10 µM; inhibitor
T1 construct: L2/434/Bu, GFP-expressing

SMILES | % of control remaining
O=C(CSc1cnn[nH]1)Nc1ccccc1F [CBK269903] | 97.016%
CS(=O)(=O)c1ccc(-c2ccc3c(c2)CN(C2CCN(C(=O)c4ccccc4)CC2)CCO3)cc1 [CBK169265] | 111.116%
Fc1ccc(-c2cn3ccnc3c(NC3CC3)n2)cc1F [CBK066692] | 185.674%
Cc1ccc(CNC(=O)c2ccc3c(c2)nc(N2CC[C@H](O)C2)n3C)s1 [CBK306837] | 138.645%
O=C(c1sccc1Br)N1CCN(Cc2ccc3c(c2)OCO3)CC1 [CBK074730] | 47.4343%
CC1CCN(C(=O)C[C@@H]2O[C@H](CNC(=O)C3CC3)[C@@H](O)[C@H]2O)CC1 [CBK288926] | 141.078%
Nc1cc2cccnc2c(-c2ccc3c(c2)CCO3)n1 [CBK081173] | 128.849%
Nc1cc2cccnc2nc1-c1ccc(OC(F)(F)F)cc1 [CBK067616] | 100.599%
CCNS(=O)(=O)c1ccc2c(c1)N(Cc1n[nH]c(CC)n1)CC2 [CBK306434] | 85.1024%
Nc1nc(NCCOc2ccccc2F)cc(C2CCOC2)n1 (centres unmarked) [CBK306559] | 141.799%
Cc1ccc(N(CC(=O)N/N=C2\C(=O)Nc3ccccc32)S(=O)(=O)c2ccccc2)cc1 [CBK262169] | 79.9783%
CC(=O)NCCSc1cccc(C(F)(F)F)n1 [CBK105299] | 128.373%
O=C1NC2CCCCC2NC1CC(=O)N1CCN(C(c2ccccc2)c2ccccc2)CC1 (centres unmarked) [CBK269201] | 145.193%
COc1ccccc1-c1ccc(CN(C)Cc2ccccc2N2CCOCC2)cc1 [CBK286108] | 83.7407%
O=[N+]([O-])c1ccc(/C=N/CCCN2CCOCC2)cc1 [CBK261058] | 121.962%
COc1ccc(C(=O)N2CCC3(CC2)NC(=O)c2ccc(C(F)(F)F)cc2O3)cc1OC [CBK166265] | 167.358%
CCn1nc2c(C)cc3cc(OC)ccc3n2c1=O [CBK283823] | 193.256%
Cc1ccc2cc(CN(Cc3ccccc3)C(=O)NCc3c(Cl)cccc3Cl)c(=O)[nH]c2c1C [CBK132088] | 128.883%
Cc1nnc2n1CCN(CC1CCCCO1)C2 (centres unmarked) [CBK304267] | 126.77%
COc1cccc(CCN2CCC(C(=O)NC(C)c3cccc4ccccc34)CC2)c1 (centres unmarked) [CBK148650] | 84.4196%
CC(C)(C)OC(=O)N1CCN(c2ccc(N)cn2)CC1 [CBK003463] | 102.354%
Cc1c(C(=O)NC2(c3ccc(F)cc3)CCCC2)cnn1C [CBK283978] | 121.521%
Cc1cc(C)n(CC(=O)N2CCC(Nc3cccnn3)CC2)n1 [CBK306234] | 145.63%
CC(C)(C)NC(=O)C[C@@H]1CCNC[C@@H]1Cc1cc(-c2ccc(F)cc2)on1 [CBK288802] | 132.57%
Cc1ccc(CN[C@@H]2CCC(=O)N[C@H]2c2cc(F)cc(F)c2)o1 [CBK283128] | 112.681%
CCCC/C=C/c1cnc(N)c(Nc2ccc3[nH]ccc3c2)n1 [CBK063811] | 201.209%

SMILES | % of control remaining
Cc1ccc(CO)cc1NC(=O)[C@@H]1CN(Cc2ccccc2)C[C@H]1C(=O)c1ccc(F)cc1 [CBK286431] | 119.314%
Nc1cc2cccnc2c(-c2cccc(C(F)(F)F)c2)n1 [CBK081177] | 118.593%
COc1ccc2c(ccn2CC(=O)NC[C@H]2CC[C@H](C(=O)O)CC2)c1 [CBK286687] | 95.5974%
COCC(=O)NC(Cc1ccsc1)c1nc(C)cs1 (centres unmarked) [CBK282804] | 101.842%
OCCN1CCN(c2nc(-c3ccc4c(c3)OCO4)cn3ccnc23)CC1 [CBK037443] | 159.84%
Nc1ncc(-c2ccco2)nc1N1CCC(C(=O)O)CC1 [CBK063440] | 108.411%
COc1cccc(CNCCO)c1OCc1ccccc1F [CBK266594C] | 128.858%
COC(=O)Cn1cc(CN2CC3CCCN3C[C@H]2C)c2ccccc21 (some centres unmarked) [CBK285436] | 116.618%
O=C(COc1ccc([N+](=O)[O-])cc1)Nc1ccc(CN2CCCCC2)cc1 [CBK266204] | 120.493%
O=C(c1cncnc1)N1CCC2(CCCNC2)C1 (centres unmarked) [CBK153237C] | 117.831%
COc1cccc(CN2CCN(C(=O)N3CCCCC3)[C@@H](C)C2)c1 [CBK284266] | 151.165%
CCn1c(N2CCC(C(=O)NC3CC3)CC2)nc2ccccc21 [CBK283922] | 119.274%
O=[N+]([O-])c1ccc(-c2nc3ccc(Br)cn3[n+]2[O-])cc1 [CBK262335] | 129.148%
Nc1ncc(-c2ccc(F)cc2)c(C2CCCN(C(=O)CCc3ccc(F)cc3)C2)n1 (centres unmarked) [CBK286092] | 92.3414%
O=C(Nc1ccc(S(=O)(=O)Nc2ccc(Cl)cc2)cc1)c1ccc(Cn2cc(Br)cn2)o1 [CBK265764] | 36.4441%
CC(=O)Nc1ccc(N2C(=O)CC(NCCCN3CCOCC3)C2=O)cc1 (centres unmarked) [CBK265236] | 109.982%
CCN1C(=O)CC2(C1=O)C(=O)N(Cc1nnc(-c3ccc(C)cc3)o1)c1ccc(OC)cc12 (centres unmarked) [CBK075586] | 118.855%
O=C(O)c1cccc(NS(=O)(=O)c2ccc(Br)cc2C(F)(F)F)c1 [CBK155724] | 138.548%
O=C(O)CCCNC(=O)COc1ccccc1OCC(=O)NCCCC(=O)O [CBK296089] | 123.535%
CCc1cc(=O)[nH]c(-c2ccc(N3CCCC3C(=O)N(C)C)nc2)n1 (centres unmarked) [CBK304197] | 119.611%
N#Cc1cccc(-n2cc(-c3ccc(Br)cc3F)nn2)c1 [CBK113143] | 141.166%
Cc1[nH]c2ccccc2c1C(=O)N1CCC(CC(=O)N2CCN(c3ccccc3)CC2)CC1 [CBK286033] | 113.084%
O=C(Nc1nccc(N2CCNCC2)n1)C1CCCC1 [CBK004302T] | 80.0435%
O=C(NCCc1ccccc1)N(Cc1ccc(-c2ccccc2)cc1)CC1CCNCC1 [CBK049792] | 98.2779%
O=C(O)CCc1ccc(-c2ccc(F)cc2)n1NC(=O)c1ccco1 [CBK268853] | 117.775%
O=C(Nc1ccccc1)N[C@H]1CO[C@H]2[C@@H]1OC[C@H]2OC(=O)Nc1ccccc1 [CBK289465] | 115.29%

SMILES | % of control remaining
N#Cc1ccc(-c2cc(N3CCN(C(=O)c4ccco4)CC3)ncn2)cc1 [CBK037813] | 135.807%
Cc1ccc(CN2C[C@H]3C(=O)Nc4ccccc4C(=O)N[C@@]3(C)C2)o1 [CBK284706] | 106.036%
COc1ncc(-c2nc(NC(=O)Cc3cc(F)c(F)c(F)c3)cnc2-c2cccc(C)c2)c(OC)n1 [CBK036717] | 126.772%
Cc1cnn(CC(=O)N2CCCCC2CN2CCCCCC2)c1 (centres unmarked) [CBK282103] | 139.711%
Cc1ccc(C2c3c(oc4ccccc4c3=O)C(=O)N2CCCCCC(=O)O)cc1 (centres unmarked) [CBK287158] | 122.363%
COc1ccc(CCCC(=O)Nc2cc3ccccc3c(N3CCNCC3)n2)cc1OC [CBK028417T] | 100%
O=C(CCc1ccc(F)cc1)N1CCCC(c2cccc(Cc3ccccc3F)n2)C1 (centres unmarked) [CBK286512] | 110.212%
Cc1cc(NC(=O)CN2CC(C(=O)N3CCN(c4ccccc4)CC3)C2)no1 [CBK285665] | 99.9657%
CC(Oc1ccccc1)C(=O)Nc1ccc(C(=O)O)cc1 (centres unmarked) [CBK287154] | 103.249%
Fc1ccc2c(ccn2CCCN2CCN(c3ccncc3)CC2)c1 [CBK043645G] | 113.73%
C(=N\c1ccc(Cc2ccncc2)cc1)/c1ccc(/C=N/c2ccc(Cc3ccncc3)cc2)cc1 [CBK262137] | 100%
CN1CCc2c(sc3c2C(=O)NC(/C=C\c2ccc([N+](=O)[O-])cc2)N3)C1 (centres unmarked) [CBK262909] | 112.561%
CC(=O)N1CC(C(=O)N2CC3(CCCC3)c3c(F)cccc32)C1 [CBK306292] | 96.7769%
Cc1ccc(OCC(=O)Nc2ncc(Cc3ccc(F)cc3)s2)cc1 [CBK293930] | 145.584%
Cc1cccc(C)c1NC(=O)CC(C(=O)O)N(C)C (centres unmarked) [CBK267022] | 165.657%
CN(C)CCN(C)C(=O)c1ccc(-c2ccccc2CO)nc1N(C)C [CBK076591] | 100%
O=C(CSc1nnc(-c2ccccc2O)o1)c1ccc(Cl)cc1 [CBK068032] | 72.6052%
Cc1ccccc1-c1ccccc1CC1(C(=O)N(C)C)CCN(C(=O)C2CC=CCC2)CC1 (centres unmarked) [CBK285733] | 104.082%
CCOC(=O)C1CCCN(CCC(=O)Nc2cccc(F)c2)C1 (centres unmarked) [CBK264275C] | 96.5519%
COC(=O)c1cccc(Cn2cc(/C=C\[N+](=O)[O-])c3ccccc32)c1 [CBK269020] | 79.0002%
COc1ccc(C(=O)Nc2ccc(N3CCN(C(=O)C(C)(C)C)CC3)cc2)cc1OC [CBK270245] | 155.793%
Cc1ccc2nsnc2c1NC(=O)CN1CCN(c2ccc(F)cc2)CC1 [CBK269231] | 107.231%
COc1ccc(CC(=O)Nc2cccc(OC(F)(F)F)c2)cc1OC [CBK296734] | 98.3541%
O=C(COc1ccccc1)NCc1ccc(OC2CCNCC2)cc1 [CBK028425T] | 112.002%
CCC(O)Cn1nc(CCSC)nc1-c1cn(C)c(=O)[nH]c1=O (centres unmarked) [CBK306588] | 91.6631%

An excerpt of these results, tab-delimited.
SMILES	% of control remaining
Cc1ccc(CNC(=O)c2ccc3c(c2)nc(N2CC[C@H](O)C2)n3C)s1 [CBK306837]	138.645%
CC(=O)NCCSc1cccc(C(F)(F)F)n1 [CBK105299]	128.373%
O=C1NC2CCCCC2NC1CC(=O)N1CCN(C(c2ccccc2)c2ccccc2)CC1 (centres unmarked) [CBK269201]	145.193%
COc1ccccc1-c1ccc(CN(C)Cc2ccccc2N2CCOCC2)cc1 [CBK286108]	83.7407%
CC(C)(C)OC(=O)N1CCN(c2ccc(N)cn2)CC1 [CBK003463]	102.354%
Cc1ccc(CN[C@@H]2CCC(=O)N[C@H]2c2cc(F)cc(F)c2)o1 [CBK283128]	112.681%
Nc1cc2cccnc2c(-c2cccc(C(F)(F)F)c2)n1 [CBK081177]	118.593%
O=C(c1cncnc1)N1CCC2(CCCNC2)C1 (centres unmarked) [CBK153237C]	117.831%
CCn1c(N2CCC(C(=O)NC3CC3)CC2)nc2ccccc21 [CBK283922]	119.274%
Nc1ncc(-c2ccc(F)cc2)c(C2CCCN(C(=O)CCc3ccc(F)cc3)C2)n1 (centres unmarked) [CBK286092]	92.3414%
CCN1C(=O)CC2(C1=O)C(=O)N(Cc1nnc(-c3ccc(C)cc3)o1)c1ccc(OC)cc12 (centres unmarked) [CBK075586]	118.855%
Cc1[nH]c2ccccc2c1C(=O)N1CCC(CC(=O)N2CCN(c3ccccc3)CC2)CC1 [CBK286033]	113.084%
Cc1ccc(CN2C[C@H]3C(=O)Nc4ccccc4C(=O)N[C@@]3(C)C2)o1 [CBK284706]	106.036%
Cc1cnn(CC(=O)N2CCCCC2CN2CCCCCC2)c1 (centres unmarked) [CBK282103]	139.711%
Cc1cc(NC(=O)CN2CC(C(=O)N3CCN(c4ccccc4)CC3)C2)no1 [CBK285665]	99.9657%
Fc1ccc2c(ccn2CCCN2CCN(c3ccncc3)CC2)c1 [CBK043645G]	113.73%
C(=N\c1ccc(Cc2ccncc2)cc1)/c1ccc(/C=N/c2ccc(Cc3ccncc3)cc2)cc1 [CBK262137]	100%
Cc1ccc2nsnc2c1NC(=O)CN1CCN(c2ccc(F)cc2)CC1 [CBK269231]	107.231%
